Data: paper PMC4891109
Results are given in words; binding and its absence hold for the method and conditions named. Binding seen in cells or lysates may run through a third protein. Some entries that bind do so weakly or less than the wild type.

Columns and labels:
[1] = target: epidermal growth factor receptor (human (endogenous in MDA-MB-231)) (UniProt P00533); assay: co-IP; endogenous proteins from MDA-MB-231 cell extracts (NP-40 lysis buffer); EGFR or CD47 antibody on Dynabeads Protein G, western blot for EGFR and CD47; cells with or without EGF
[2] = target: CD47 (human (endogenous in MDA-MB-231)) (UniProt Q08722); assay: as above
[3] = target: CD47 (human (endogenous in MDA-MB-231)) (UniProt Q08722); assay: co-IP; as a1, but MDA-MB-231 cells pretreated with the CD47 antibody B6H12 (1 μg/ml) for 15 min before lysis

binding [1]	binding [2]	binding [3]	Substance
binds	–	–	CD47 (from UniProt Q08722 19-323) (receptor)
–	binds	binds	epidermal growth factor receptor (from UniProt P00533 25-1210)
